The values that follow come from patent publication US20240116987A1, “POLYPEPTIDE INHIBITORS OF LACTATE DEHYDROGENASE ACTIVITY FOR USE IN CANCER THERAPY” (UNIVERSITÉ CATHOLIQUE DE LOUVAIN, priority 2021, published 2024).

A short description of this data set: Mass photometry (oligomeric state in solution). Format: physicochemical, human. As to conditions: for Mw (main oligomeric state, mass photometry): means ± SD, theoretical tetramer 155 kDa, dimer 78 kDa.

For “LDH-Htr: dimeric model of LDH-H obtained by truncating its N-terminal tetramerization domain [reference compound]”, the “Oligomeric state in solution according to MP” value (from here on “Oligomeric state … to MP”) was “equilibrium between dimers and tetramers in solution”; the “Mw (main oligomeric state, mass photometry)” value (“Mw” below) stood at 88 ± 13 kDa.

Consider “L71A: LDH-H recombinant alanine variant L71A of SEQ ID NO: 2”, for which the “Oligomeric state … to MP” value was “behaving as a mixture of tetramers and dimers”; the “Mw” value worked out at 148 ± 12 kDa.

In the case of “E62A: LDH-H recombinant alanine variant E62A of SEQ ID NO: 2”, the “Oligomeric state … to MP” value is “behaving mainly as dimers in solution”.

Turning to “F72A: LDH-H recombinant alanine variant F72A of SEQ ID NO: 2”, the “Oligomeric state … to MP” value is “behaving mainly as dimers in solution” and the “Mw” value turned out to be 70 ± 17 kDa.
